Measurements reported in PubChem BioAssay AID743454 (Peter MacCallum Cancer Centre, 2014).
Test: 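Genes whose loss kills vorinostat-resistant colon cancer cells under vorinostat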 (primary screen). System: human HCT116-VR colon cancer cells, selected for vorinostat resistance. Reagents: siRNA pool against human genes, 40 nM siRNA pool. Time to read-out: vorinostat for 24 h, read-out about 72 h after transfection. Treatment: vorinostat at 2.5 µM final. Measurement: 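Two measures, CellTiter-Fluor viability and luminescent caspase 3/7 activity, each as fold change against same-plate mock wells, mean of duplicates, then screen-wide robust z-score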. Reading the numbers: viability robust z-score: higher = more viable cells than screen typical; caspase robust z-score: higher = more caspase 3/7 activity than screen typical. Hit rule: 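Hits are knock-downs in viability class RV1/RV2 or caspase class CA1/CA2, excluding ones that killed cells in the no-drug cell-count arm; hits then retested with single siRNAs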.
The deposit covers about 18,000 reagents; this is a random part of them. 450 of all reagents (2.5%) count as active. 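Single biological run; no consistent viability z cut-off exists, so the class columns, not z-scores, define the calls.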 Entries without a mark were called inactive.

| target | viability hit class | caspase hit class | viability robust z-score | caspase robust z-score |
| --- | --- | --- | --- | --- |
| NOC2L | no change | no change | -1.41 | 1.08 |
| IKZF4 | no change | no change | -1.55 | 0.11 |
| GALE | no change | no change | 0.29 | -0.45 |
| TMPRSS11F | RV2 (reduced viability) (active) | no change | -3.4 | 3.41 |
| GFPT1 | no change | no change | 0.01 | -0.34 |
| HNF1A | no change | no change | 0.7 | 0.94 |
| RAVER1 | no change | no change | -0.18 | 0.75 |
| KLHL17 | no change | no change | 0 | 1 |
| HDX | no change | no change | -0.66 | -1.23 |
| HOXD13 | no change | no change | 0.3 | 0.3 |
| PPP1R3A | no change | no change | 0.78 | -0.58 |
| CCN4 | no change | no change | -0.2 | 2.5 |
| PNMA8A | no change | no change | 0.31 | 0.24 |
| SRSF2 | no change | no change | -0.64 | -0.13 |
| MMP20 | no change | no change | 1.36 | 0.3 |
| CD46 | no change | no change | 0.37 | -0.64 |
| HTN1 | no change | no change | 0.64 | 1.8 |
| TIGD5 | no change | no change | 2.12 | 0 |
| ELOB | no change | no change | -0.42 | -0.05 |
| DDAH1 | no change | no change | -0.48 | 0.09 |

Next part (2 carried over from the part before).
| target | viability hit class | caspase hit class | viability robust z-score | caspase robust z-score |
| --- | --- | --- | --- | --- |
| ELOB | no change | no change | -0.42 | -0.05 |
| DDAH1 | no change | no change | -0.48 | 0.09 |
| KCNC3 | no change | no change | 0.75 | -0.64 |
| GSTA1 | no change | no change | -0.14 | 0.86 |
| NSUN5 | no change | no change | 1.05 | 0.16 |
| SYT3 | no change | no change | -1.52 | -0.32 |
| OR13G1 | no change | no change | 0.46 | 0.1 |
| GSTT2 | no change | no change | 0.45 | -0.08 |
| AIFM3 | no change | no change | -0.7 | 0.58 |
| IL17REL | no change | no change | 0.07 | -0.7 |
| DAP | no change | no change | -1.44 | -0.76 |
| CIDEB | no change | no change | 0.47 | -0.54 |
| MSH6 | no change | no change | -0.32 | 1.56 |
| SERPINB8 | no change | no change | -0.27 | -0.82 |
| SEC63 | no change | no change | 0.66 | -0.74 |
| GRIK1 | no change | no change | 0.53 | 0.51 |
| GPR42 | no change | no change | -2.64 | 4.75 |
| TRA2A | no change | no change | 0.36 | -0.78 |
| BMP2 | no change | no change | 0.68 | -0.83 |
| SERPINI1 | no change | no change | -1.67 | 1.38 |
| OR14K1 | no change | no change | 0 | -0.87 |
| KLC1 | no change | no change | 0.04 | 0.38 |
| BCAS3 | no change | no change | 0.46 | -1.19 |
| NPEPPS | RV1 (reduced viability) (active) | no change | -3.07 | -0.72 |
| DHRS3 | no change | no change | 0.56 | -0.09 |
| DNAH12 | no change | no change | -0.14 | -0.38 |
| HHEX | no change (active) | CA1 (caspase activation) | -1 | 8.1 |
| DVL2 | no change | no change | -0.86 | -0.59 |
| USP5 | no change | no change | 0.04 | 1.84 |
| PLCG1 | no change | no change | 0.7 | 0.72 |
| CSAG1 | no change | no change | 0.72 | -0.06 |
| GMPPA | no change | no change | -1.05 | 2.27 |
| LRRCC1 | no change | no change | -0.94 | 0.48 |
| ADIPOQ | no change | no change | 1.79 | 0.03 |
| ZNF654 | no change | no change | 0.32 | 0.94 |
| TTC19 | no change | no change | -0.29 | 0.18 |
| ZNF777 | no change | no change | -0.56 | -0.16 |
| RNF114 | no change | no change | -0.62 | 1.5 |
| RIPPLY2 | no change | no change | 0.24 | -0.72 |
